Values as published with doi:10.1371/journal.pone.0140310, rounded.

Drugs:
FK866 (0.05 µM): O=C(/C=C/c1cccnc1)NCCCCC1CCN(C(=O)c2ccccc2)CC1
lapatinib (4 µM): CS(=O)(=O)CCNCc1ccc(-c2ccc3ncnc(Nc4ccc(OCc5cccc(F)c5)c(Cl)c4)c3c2)o1
CP-690550 (5 µM): C[C@@H]1CCN(C(=O)CC#N)C[C@@H]1N(C)c1ncnc2[nH]ccc12
STA-4783 (0.03 µM): CN(NC(=O)CC(=O)NN(C)C(=S)c1ccccc1)C(=S)c1ccccc1
midostaurin (0.4 µM): CO[C@@H]1[C@H](N(C)C(=O)c2ccccc2)C[C@H]2O[C@]1(C)n1c3ccccc3c3c4c(c5c6ccccc6n2c5c31)C(=O)NC4
GSK0660 (5 µM): COC(=O)c1sccc1S(=O)(=O)Nc1ccc(Nc2ccccc2)cc1OC
LFM-A13 (10 µM): C/C(O)=C(\C#N)C(=O)Nc1cc(Br)ccc1Br
TCS401 (8.33 µM): O=C(O)C(=O)Nc1sc2c(c1C(=O)O)CCNC2
ENMD-2076 (0.2 µM): Cc1cc(Nc2cc(N3CCN(C)CC3)nc(/C=C/c3ccccc3)n2)n[nH]1
OSI-906 (2 µM): C[C@]1(O)C[C@@H](c2nc(-c3ccc4ccc(-c5ccccc5)nc4c3)c3c(N)nccn32)C1
AZD7762 (0.1 µM): NC(=O)Nc1cc(-c2cccc(F)c2)sc1C(=O)N[C@H]1CCCNC1
XAV939 (10 µM): Oc1nc(-c2ccc(C(F)(F)F)cc2)nc2c1CSCC2
crizotinib (1 µM): C[C@@H](Oc1cc(-c2cnn(C3CCNCC3)c2)cnc1N)c1c(Cl)ccc(F)c1Cl
ruxolitinib (5 µM): N#CC[C@H](C1CCCC1)n1cc(-c2ncnc3[nH]ccc23)cn1
dorsomorphin (2 µM): c1cc(-c2cnn3cc(-c4ccc(OCCN5CCCCC5)cc4)cnc23)ccn1
MK-1775 (0.1 µM): C=CCn1c(=O)c2cnc(Nc3ccc(N4CCN(C)CC4)cc3)nc2n1-c1cccc(C(C)(C)O)n1
dovitinib (0.5 µM): CN1CCN(c2ccc3nc(-c4c(N)c5c(F)cccc5[nH]c4=O)[nH]c3c2)CC1
bortezomib (0.005 µM): CC(C)C[C@H](NC(=O)[C@H](Cc1ccccc1)NC(=O)c1cnccn1)B(O)O
nilotinib (1 µM): Cc1cn(-c2cc(NC(=O)c3ccc(C)c(Nc4nccc(-c5cccnc5)n4)c3)cc(C(F)(F)F)c2)cn1
tozasertib (0.03 µM): Cc1cc(Nc2cc(N3CCN(C)CC3)nc(Sc3ccc(NC(=O)C4CC4)cc3)n2)n[nH]1

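Human melanoma cells were exposed to a pair of drugs for 72 h in 1,536-well plates and read by automated microscopy after fixing and staining. The read-out is cell count (nuclei) in % of the DMSO control; lower values mean stronger growth inhibition or killing. Concentrations were fixed for each drug; these are the higher of two levels. No replicate spread is given; individual values may be noisy.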
This is part of the screen, not chosen by result.
A dash means that no value is listed here.

| Pair | COLO 829 | WM451Lu | COLO 792 | COLO 800 | C32 |
|---|---|---|---|---|---|
| dovitinib and ruxolitinib | 63.4 | - | 58.5 | 126 | 84.1 |
| dovitinib and OSI-906 | 59.7 | - | 48.0 | 40.1 | 74.1 |
| ruxolitinib and STA-4783 | 70.9 | - | 32.7 | 11.2 | 11.7 |
| bortezomib and crizotinib | 15.7 | - | 38.6 | 56.5 | 22.0 |
| lapatinib and nilotinib | 104 | - | 54.3 | 47.6 | 87.8 |
| bortezomib and ruxolitinib | 11.2 | - | 33.7 | 75.3 | - |
| ruxolitinib and FK866 | 72.3 | - | 40.6 | 23.6 | 98.2 |
| MK-1775 and tozasertib | 65.2 | - | 55.2 | 36.4 | 76.2 |
| dorsomorphin and STA-4783 | 46.3 | 70.0 | 21.0 | 28.7 | 23.4 |
| MK-1775 and XAV939 | 106 | - | 66.0 | 110 | 82.7 |
| crizotinib and nilotinib | 115 | 92.5 | 99.8 | 63.6 | 87.3 |
| CP-690550 and TCS401 | 119 | - | 97.6 | 98.0 | 104 |
| ENMD-2076 and crizotinib | 58.6 | - | 46.1 | 24.9 | 70.7 |
| STA-4783 and tozasertib | 51.0 | - | 37.5 | 13.3 | 27.9 |
| LFM-A13 and AZD7762 | 91.8 | - | 56.8 | 50.7 | 74.9 |
| GSK0660 and midostaurin | 81.0 | - | 47.3 | 20.8 | 71.6 |
| midostaurin and TCS401 | 66.5 | - | 79.3 | 39.4 | 91.0 |
| XAV939 and CP-690550 | 119 | - | 75.0 | 95.3 | 112 |

For reference, 2 entries once more:

Pair	COLO 829	WM451Lu	COLO 792	COLO 800	C32
XAV939 and CP-690550	119	-	75.0	95.3	112
CP-690550 and TCS401	119	-	97.6	98.0	104